Assay results taken from publication PMC4961953.
These are yes or no findings as the source states them, for the method shown. In cells and extracts the contact can be indirect. Some results given as binding are weak or reduced against the parent protein; the word gives no strength.

Sequences of proteins named here, by UniProt entry; tags and fusion partners are left off. A change or cut given only in a name is not applied to a line headed by its entry. A line that says so, or that is headed by a name, gives the form on record, which may keep a tag or linker. Residues count along the entry.
UniProt Q8NEB9: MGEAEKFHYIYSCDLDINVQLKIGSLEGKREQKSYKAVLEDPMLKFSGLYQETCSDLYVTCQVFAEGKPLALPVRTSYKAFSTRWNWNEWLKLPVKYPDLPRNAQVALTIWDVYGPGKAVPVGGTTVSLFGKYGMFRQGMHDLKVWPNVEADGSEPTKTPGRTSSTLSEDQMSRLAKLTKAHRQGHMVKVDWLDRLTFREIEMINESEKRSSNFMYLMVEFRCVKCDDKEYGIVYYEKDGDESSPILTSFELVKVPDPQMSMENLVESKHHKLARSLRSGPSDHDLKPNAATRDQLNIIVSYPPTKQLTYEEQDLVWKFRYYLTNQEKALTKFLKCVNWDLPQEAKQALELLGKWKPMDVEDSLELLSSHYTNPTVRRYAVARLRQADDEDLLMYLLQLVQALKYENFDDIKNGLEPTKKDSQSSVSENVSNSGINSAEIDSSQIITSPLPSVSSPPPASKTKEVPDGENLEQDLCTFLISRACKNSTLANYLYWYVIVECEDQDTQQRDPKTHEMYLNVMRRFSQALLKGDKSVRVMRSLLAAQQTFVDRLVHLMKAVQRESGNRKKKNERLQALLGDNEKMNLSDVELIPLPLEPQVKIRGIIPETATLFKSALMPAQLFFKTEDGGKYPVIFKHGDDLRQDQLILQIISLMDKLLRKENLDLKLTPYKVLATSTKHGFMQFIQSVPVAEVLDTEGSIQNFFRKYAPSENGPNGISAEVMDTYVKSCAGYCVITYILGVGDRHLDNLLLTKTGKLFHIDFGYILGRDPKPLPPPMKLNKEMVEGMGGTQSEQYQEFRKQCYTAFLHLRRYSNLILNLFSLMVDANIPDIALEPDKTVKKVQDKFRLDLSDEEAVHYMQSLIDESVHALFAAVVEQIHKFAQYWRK
Glucose-regulated protein 78 (GRP78), endogenous in DLD1 cells (human (endogenous in DLD1)) (P11021, residues 19-654): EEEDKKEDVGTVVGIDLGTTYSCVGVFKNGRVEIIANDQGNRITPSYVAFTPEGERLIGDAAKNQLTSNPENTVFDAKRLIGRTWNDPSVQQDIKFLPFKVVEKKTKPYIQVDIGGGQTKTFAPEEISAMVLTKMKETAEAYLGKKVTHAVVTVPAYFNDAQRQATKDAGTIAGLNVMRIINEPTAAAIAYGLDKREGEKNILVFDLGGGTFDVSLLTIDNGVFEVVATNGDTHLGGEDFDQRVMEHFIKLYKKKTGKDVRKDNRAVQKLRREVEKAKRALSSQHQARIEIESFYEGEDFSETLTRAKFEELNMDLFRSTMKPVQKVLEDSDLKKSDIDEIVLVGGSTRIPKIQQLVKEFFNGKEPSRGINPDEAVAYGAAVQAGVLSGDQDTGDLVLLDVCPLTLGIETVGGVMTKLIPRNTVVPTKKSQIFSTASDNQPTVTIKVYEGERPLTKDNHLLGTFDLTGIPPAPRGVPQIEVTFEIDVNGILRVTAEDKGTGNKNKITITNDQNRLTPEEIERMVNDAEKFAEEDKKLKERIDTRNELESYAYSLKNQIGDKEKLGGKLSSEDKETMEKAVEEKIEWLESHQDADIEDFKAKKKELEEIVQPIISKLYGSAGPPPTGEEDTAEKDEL
GRP78-GFP K633Q mutant (PLVX-GRP78-AcGFP-K633Q) (P11021, form named): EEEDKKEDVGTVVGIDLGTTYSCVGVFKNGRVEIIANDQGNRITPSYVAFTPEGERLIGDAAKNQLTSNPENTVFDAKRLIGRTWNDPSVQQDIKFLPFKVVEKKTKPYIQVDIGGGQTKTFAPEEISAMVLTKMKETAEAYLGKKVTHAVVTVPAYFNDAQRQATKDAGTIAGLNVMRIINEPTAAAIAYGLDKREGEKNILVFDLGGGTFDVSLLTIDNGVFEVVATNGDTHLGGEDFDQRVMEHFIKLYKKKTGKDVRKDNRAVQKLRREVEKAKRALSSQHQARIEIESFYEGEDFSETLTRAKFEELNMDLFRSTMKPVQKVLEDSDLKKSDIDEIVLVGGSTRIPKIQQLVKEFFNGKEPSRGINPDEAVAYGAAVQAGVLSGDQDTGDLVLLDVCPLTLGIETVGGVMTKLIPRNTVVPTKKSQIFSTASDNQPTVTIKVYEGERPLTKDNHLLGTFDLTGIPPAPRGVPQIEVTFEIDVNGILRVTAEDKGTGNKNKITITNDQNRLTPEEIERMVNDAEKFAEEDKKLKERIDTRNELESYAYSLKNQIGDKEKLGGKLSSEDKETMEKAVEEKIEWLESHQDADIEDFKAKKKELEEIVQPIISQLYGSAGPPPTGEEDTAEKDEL
UniProt Q9UBN7: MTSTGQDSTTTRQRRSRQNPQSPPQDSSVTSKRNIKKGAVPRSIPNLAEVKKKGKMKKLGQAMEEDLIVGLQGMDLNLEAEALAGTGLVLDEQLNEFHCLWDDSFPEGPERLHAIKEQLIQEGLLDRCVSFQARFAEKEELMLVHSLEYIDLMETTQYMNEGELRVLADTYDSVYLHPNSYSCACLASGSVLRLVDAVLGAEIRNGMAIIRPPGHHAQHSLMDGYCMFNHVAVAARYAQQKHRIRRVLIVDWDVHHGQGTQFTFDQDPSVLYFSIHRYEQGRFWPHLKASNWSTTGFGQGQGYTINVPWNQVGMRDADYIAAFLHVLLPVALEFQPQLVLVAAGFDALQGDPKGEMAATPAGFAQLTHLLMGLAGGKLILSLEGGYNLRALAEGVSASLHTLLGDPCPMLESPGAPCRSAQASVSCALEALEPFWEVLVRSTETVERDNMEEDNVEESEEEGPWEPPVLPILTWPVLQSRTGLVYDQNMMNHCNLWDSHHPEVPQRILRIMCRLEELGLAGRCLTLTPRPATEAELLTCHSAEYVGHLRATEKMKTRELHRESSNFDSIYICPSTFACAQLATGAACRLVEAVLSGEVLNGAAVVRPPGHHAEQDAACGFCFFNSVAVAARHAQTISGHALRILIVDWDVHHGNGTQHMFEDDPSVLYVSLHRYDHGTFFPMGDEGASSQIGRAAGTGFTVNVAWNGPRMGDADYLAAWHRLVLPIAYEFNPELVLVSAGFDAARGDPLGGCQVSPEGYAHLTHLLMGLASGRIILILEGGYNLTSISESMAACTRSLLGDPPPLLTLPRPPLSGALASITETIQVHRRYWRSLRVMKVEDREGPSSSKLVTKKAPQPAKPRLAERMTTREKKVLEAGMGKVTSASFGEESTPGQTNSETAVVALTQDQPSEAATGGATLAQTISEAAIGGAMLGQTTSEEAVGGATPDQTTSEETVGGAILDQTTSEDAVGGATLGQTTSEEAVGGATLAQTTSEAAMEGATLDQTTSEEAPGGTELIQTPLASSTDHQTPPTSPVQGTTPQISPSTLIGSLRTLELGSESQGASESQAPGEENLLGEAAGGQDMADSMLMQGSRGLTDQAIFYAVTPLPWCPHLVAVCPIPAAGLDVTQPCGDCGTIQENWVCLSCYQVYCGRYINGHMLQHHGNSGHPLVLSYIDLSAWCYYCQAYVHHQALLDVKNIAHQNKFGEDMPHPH

Tests used:
Flag-tagged VPS34 = Flag-tagged VPS34 (UniProt Q8NEB9); test: co-IP; 293T cells co-transfected with Flag-tagged VPS34 and GRP78-GFP (wild type or mutant) plasmids, with or without SAHA for 12 h; lysates immunoprecipitated with an anti-Flag antibody, immunoblotted with an anti-GFP antibody
[1] = target: Glucose-regulated protein 78 (GRP78), endogenous in DLD1 cells (human (endogenous in DLD1)) (UniProt P11021); test: co-IP; DLD1 whole-cell lysates, cells treated or untreated with SAHA; immunoprecipitated with an anti-GRP78 antibody, immunoblotted with anti-HDAC6 and anti-VPS34 antibodies; all proteins endogenous

| binding (Flag-tagged VPS34) | binding [1] | Substance |
| --- | --- | --- |
| binds | – | GRP78-GFP fusion protein (wild-type GRP78, plasmid PLVX-GRP78-AcGFP) (from UniProt P11021 19-654) |
| binds | – | GRP78-GFP K633Q mutant (PLVX-GRP78-AcGFP-K633Q) (from UniProt P11021 19-654) |
| – | binds | Histone deacetylase 6 (HDAC6), endogenous in DLD1 cells (from UniProt Q9UBN7 1-1215) |
